Results deposited as PubChem BioAssay AID1259425 (University of Nebraska Medical Center, 2018).
Shown is one part, drawn at random, of about 14,000 deposited reagents. Not stated in the record: the time to read-out.

- Aim: 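Find knockdowns that reproduce the gene expression pattern seen when KSR1 is lost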 (primary screen)
- Cells: HCT116 human colon cancer cells
- Reagents: siRNA pool against human genes, 50 nM siRNA
- Detection: 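mRNA of six signature genes measured together by branched-DNA assay after 50 nM siRNA pool, blank removed, divided by geometric mean of two housekeeping genes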
- Scale: BNIP3L mRNA: higher = more BNIP3L transcript after knockdown; NDRG1 mRNA: higher = more NDRG1 transcript after knockdown; BNIP3 mRNA: higher = more BNIP3 transcript after knockdown; ALDOC mRNA: higher = more ALDOC transcript after knockdown; ACSL5 mRNA: higher = more ACSL5 transcript after knockdown

| gene | BNIP3L mRNA, set 1 | NDRG1 mRNA, set 1 | BNIP3 mRNA, set 1 | ALDOC mRNA, set 1 | ACSL5 mRNA, set 1 |
| --- | --- | --- | --- | --- | --- |
| RAP1GAP | 0.107 | 0.143 | 0.294 | 0.0656 | 0.137 |
| SHC2 | 0.0574 | 0.189 | 0.188 | 0.00995 | 0.172 |
| KRT19 | 0.163 | 0.262 | 0.295 | 0.0292 | 0.206 |
| CKLF | 0.0606 | 0.16 | 0.248 | 0.0378 | 0.148 |
| SP4 | 0.13 | 0.274 | 0.36 | 0.0241 | 0.212 |
| MTX1 | 0.087 | 0.109 | 0.363 | 0.0194 | 0.105 |
| MAN2A2 | 0.118 | 0.168 | 0.347 | 0.0336 | 0.122 |
| BAIAP2L1 | 0.0927 | 0.149 | 0.278 | 0.0109 | 0.139 |
| EHMT1 | 0.22 | 0.125 | 0.325 | 0.089 | 0.15 |
| SLC7A5 | 0.112 | 0.225 | 0.216 | 0.0192 | 0.0996 |
| TCTA | 0.0462 | 0.227 | 0.284 | 0.0143 | 0.0933 |
| ZCCHC17 | 0.119 | 0.169 | 0.274 | 0.0401 | 0.158 |
| DEFA4 | 0.265 | 0.314 | 0.38 | 0.0208 | 0.129 |
| MARCHF5 | 0.112 | 0.123 | 0.3 | 0.0305 | 0.127 |
| STYXL1 | 0.0729 | 0.351 | 0.261 | 0.0319 | 0.251 |
| DAZ2 | 0.106 | 0.13 | 0.298 | 0.0186 | 0.137 |
| NFKBIZ | 0.182 | 0.156 | 0.307 | 0.0287 | 0.116 |
| MMEL1 | 0.155 | 0.189 | 0.365 | 0.041 | 0.145 |
| RNF115 | 0.0887 | 0.308 | 0.284 | 0.034 | 0.212 |
| CEP85 | 0.0581 | 0.116 | 0.247 | 0.00792 | 0.109 |
| PTK6 | 0.0568 | 0.0441 | 0.349 | 0.00502 | 0.0674 |
| EPM2AIP1 | 0.0939 | 0.172 | 0.344 | 0.0169 | 0.454 |
| TENM1 | 0.135 | 0.155 | 0.226 | 0.0166 | 0.263 |
| HSFY1 | 0.0355 | 0.0527 | 0.343 | 0.00475 | 0.112 |
| GNL2 | 0.237 | 1.17 | 0.679 | 0.0433 | 0.327 |
| IL20RA | 0.0696 | 0.317 | 0.241 | 0.0292 | 0.165 |
| APPL1 | 0.191 | 0.412 | 0.345 | 0.0102 | 0.414 |
| SIX2 | 0.0849 | 0.248 | 0.339 | 0.0291 | 0.265 |
| IQCB1 | 0.0498 | 0.171 | 0.374 | 0.0374 | 0.185 |
| LAMC2 | 0.0932 | 0.166 | 0.231 | 0.0352 | 0.125 |
| PCNA | 0.197 | 0.205 | 0.423 | 0.0338 | 0.184 |
| AFAP1L2 | 0.153 | 0.104 | 0.326 | 0.0688 | 0.111 |
| ALX1 | 0.0484 | 0.113 | 0.33 | 0.0103 | 0.18 |
| CEP135 | 0.108 | 0.144 | 0.391 | 0.092 | 0.235 |

Single entries from the list.
Under “BNIP3 mRNA, set 1”, BAIAP2L1 has 0.278
ALX1, NDRG1 mRNA, set 1: 0.113
Value for SIX2 under “BNIP3L mRNA, set 1”: 0.0849
